Measurements from PubChem BioAssay AID2685 (National Center for Advancing Translational Sciences (NCATS), 2010).
The list shows a part of the results. These are further read-outs of the screen, such as a control signal, another cell line or another target. No call is given for them. Compounds called inactive in the main read-out are mostly missing here. Words in brackets tell the shape of the fitted curve; partial curves, single points and poor fits give uncertain potencies.

Assay: qHTS Assay for Lipid Storage Modulators in Drosophila S3 Cells;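 for cell number change: cells counted by Cell Tracker Red CMTPX staining in the red channel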
Conditions: BODIPY lipid droplet fluorescence, 18-24 h; for cell number change: measured here: cell count max response, cells fed with added oleic acid
How it was run: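 Laser-scanning cytometry quantifies lipid droplet accumulation (500–530 nm total intensity; droplet/cell object ratio) in oleic acid-fed (400 uM added) Drosophila S3 cells treated with a concentration series. 20 uM Triacsin C defined 100% inhibition.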

[1] = measured here: cell number channel AC50, cells fed with added oleic acid
[2] = measured here: lipid fluorescence (Fed channel) AC50, cells fed with added oleic acid

Row | SMILES | cell number change | AC50 [1] | AC50 [2]
1 | COc1ccccc1N1CCN(C(=O)C2=CC=CN3CCS(=O)(=O)N=C23)CC1 | -6.49% | 0.731 µM [falling, single point] | 23.1 µM [rising, partial curve]
2 | CCOCc1cn(CC(=O)c2ccc([N+](=O)[O-])cc2)c(C)nc1=N | 25.9% | – | –
3 | O=C(CCSCCC(=O)NCc1ccccc1)NCc1ccccc1 | -52.4% | 7.31 µM [falling, partial curve] | 0.651 µM [falling, partial curve, poor fit]
4 | O=C(COC(=O)CCc1c[nH]c2ccccc12)NCCc1ccccc1 | 56.2% | 3.66 µM [falling, single point] | –
5 | CC(=O)c1cccc(NC(=O)COC(=O)c2ccc3c(c2)OCO3)c1 | -27% | – | 0.184 µM [falling, full curve]
6 | COc1ccc(C(=O)NCCCOC(=O)c2ccc(OC)cc2)cc1 | 7.27% | – | 0.282 µM [rising, full curve, poor fit]
7 | Cc1ccc(C)c(NC(=O)CN(C)C(=O)c2cccc(S(=O)(=O)N3CCCC3)c2)c1 | -9.29% | – | –
8 | O=C(c1ccc(Cl)cc1)c1coc2ccc(O)cc12 | -50% | 29.1 µM [falling, single point] | 18.4 µM [falling, single point]
9 | S=C1CCC(c2ccc(Br)cc2)=NN1c1ccccc1 | -11.2% | – | 0.731 µM [falling, full curve, poor fit]
10 | CCOC(=O)c1c(CSc2ccccc2)n(C)c2cc(Br)c(OC)c(O)c12 | 15.3% | – | 7.31 µM [rising, partial curve, poor fit]
11 | CC(OC(=O)CCN=C1NS(=O)(=O)c2ccccc21)C(=O)Nc1ccc(F)c(F)c1F (configuration not stated) | -5.44% | – | 4.11 µM [rising, partial curve]
12 | COc1ccccc1OCC(=O)N/N=C/c1cccc2cccnc12 | -40.2% | 0.13 µM [falling, partial curve, poor fit] | 32.6 µM [falling, single point]
13 | Cc1ccc(NC(=O)C2CCN(S(=O)(=O)c3c(C)nn(C)c3C)CC2)c(Cl)c1 | 36.1% | 20.6 µM [rising, partial curve] | 25.9 µM [rising, partial curve]
14 | Cn1c(N)c(C(=O)CSc2nnc(-c3ccccc3F)n2C2CC2)c(=O)n(C)c1=O | – | – | 0.206 µM [rising, full curve, poor fit]
15 | Cc1ccc(S(=O)(=O)N2CCCCC2)cc1NC(=O)COC(=O)c1ccc(=O)[nH]c1 | -1.76% | – | 5.17 µM [rising, full curve]
16 | Cc1ccc(S(=O)(=O)NCC(=O)OCC(=O)NCc2ccc(F)cc2)cc1 | -29.4% | – | 32.6 µM [falling, single point]
17 | COc1ccc(Cn2c(C)nc3c(c(=O)c4ccccc4n3C)c2=O)cc1 | -40.3% | 3.66 µM [falling, full curve, poor fit] | 4.61 µM [falling, full curve]
18 | COc1ccc(CCNC(=O)Nc2cccc([N+](=O)[O-])c2)cc1 | -25.1% | 0.00411 µM [falling, full curve, poor fit] | –
19 | CC(C)C(NS(=O)(=O)c1ccccc1)C(=O)NC1CCCC1 (configuration not stated) | -1.16% | – | 1.64 µM [rising, single point]

Row | SMILES | cell number change | AC50 [1] | AC50 [2]
20 | CCC(C(=O)N1CCN(C(=O)c2ccco2)CC1)n1sc2ccccc2c1=O (configuration not stated) | 6.57% | – | 6.51 µM [falling, single point]
21 | Cc1cc(C)n(-c2ccc(C(=O)OCc3nnc(-c4ccccc4)o3)cc2)n1 | -4.01% | – | –
22 | Cc1ccc(C(=O)NC(=O)CSc2nncn2C)cc1 | 12.5% | 7.31 µM [rising, partial curve, poor fit] | 6.51 µM [rising, single point]
23 | Cc1ccc(C(C2=C(O)CC(C)(C)CC2=O)C2C(=O)CC(C)(C)CC2=O)o1 (configuration not stated) | 17.9% | – | 29.1 µM [rising, single point]
24 | O=C(c1ccc(Cl)cc1)c1cc([N+](=O)[O-])ccc1N1CCOCC1 | -25.3% | – | 0.0082 µM [falling, full curve, poor fit]
25 | COc1ccc(NC(=O)c2c(-c3c(Cl)cccc3Cl)noc2C)cn1 | 20% | – | 14.6 µM [rising, partial curve]
26 | Cc1ccc(S(=O)(=O)N/N=C/c2c(F)cccc2Cl)cc1 | -33.9% | 0.82 µM [falling, full curve, poor fit] | 6.51 µM [falling, single point]
27 | CCOC(=O)c1cnc(-c2ccccc2)nc1-c1ccccc1 | – | 0.0116 µM [rising, full curve] | 0.651 µM [rising, full curve, poor fit]
28 | CCOc1ccc(OCC)c(NC(=O)CCCN2C(=O)c3cccnc3C2=O)c1 | 20.5% | – | 0.259 µM [falling, full curve, poor fit]
29 | COCCSc1ccccc1C(=O)NCC1CCCO1 (configuration not stated) | -12% | 1.84 µM [falling, partial curve, poor fit] | 2.06 µM [falling, partial curve]
30 | O=S(=O)(c1ccccc1)c1cnn(-c2ccccc2)c1-c1ccc(Cl)cc1 | -14.3% | – | –
31 | O=C(O)CC(NC(=O)CC(c1ccccc1)c1ccccc1)c1cccc([N+](=O)[O-])c1 (configuration not stated) | -7.8% | – | –
32 | NS(=O)(=O)c1ccc(CCNC(=O)C2CCN(S(=O)(=O)c3c(Cl)cccc3Cl)CC2)cc1 | 8.24% | – | 7.31 µM [rising, partial curve]
33 | Cc1ccc(C(=O)Nc2nccc(C)n2)cc1 | 1.47% | – | 0.651 µM [rising, full curve, poor fit]
34 | CCn1c(=O)cc(SCC(=O)Nc2cccc(SC)c2)c2ccccc21 | – | 0.082 µM [rising, partial curve, poor fit] | 0.00411 µM [rising, full curve, poor fit]
35 | Cc1ccc([N+](=O)[O-])cc1S(=O)(=O)N1CCCCC1C(=O)O (configuration not stated) | -30.5% | 18.4 µM [falling, partial curve] | 29.1 µM [falling, single point]
36 | Cc1noc(C)c1S(=O)(=O)Nc1ccc(C(=O)NC2CCCCC2)cc1 | -11.1% | – | 2.91 µM [rising, single point]
37 | C=CCn1c(SCC(N)=O)nc(C)cc1=O | 3.51% | – | 0.13 µM [falling, full curve, poor fit]
38 | CCN(CC)CCCNC(=S)N1CCN(c2nc3ccccc3n2CC)CC1 | 18.6% | – | 23.1 µM [rising, single point]

Row | SMILES | cell number change | AC50 [1] | AC50 [2]
39 | COc1ccc(CC(=O)N/N=C(\C)c2cccnc2)cc1 | 37.7% | 29.1 µM [rising, single point] | –
40 | Cn1c2c(c(=O)n(C)c1=O)C(NS(=O)(=O)c1ccccc1)(C(F)(F)F)C(=O)N2 (configuration not stated) | -16.6% | 6.51 µM [falling, single point] | 3.26 µM [falling, single point]
41 | Cc1ccc(S(=O)(=O)Nc2ccccc2C(=O)Nc2ccc(S(=O)(=O)Nc3nccc(C)n3)cc2)cc1 | 6.08% | – | 13 µM [rising, single point]
42 | O=C(NCc1ccccc1F)c1ccc2c(c1)OCCO2 | 14.4% | – | 29.1 µM [rising, single point]
43 | COc1cc2c3c(c1)C(C)CC(C)(C)N3C(=O)C2=O (configuration not stated) | 5.86% | – | 29.1 µM [rising, single point]
44 | COc1ccc(/[N+]([O-])=C/c2ccoc2)cc1 | -7.61% | – | 18.4 µM [falling, single point]
45 | Cc1ccc(S(=O)(=O)N2CCCCC2)cc1NC(=O)COC(=O)Cc1cccc(C(F)(F)F)c1 | -5.8% | 0.326 µM [falling, partial curve, poor fit] | –
46 | COC(c1ccccc1)c1nnc(CCC(=O)NCCCc2ccccc2)o1 (configuration not stated) | -56.9% | 2.06 µM [falling, full curve] | 2.06 µM [falling, full curve]
47 | CCCc1cc(=O)[nH]c(SCc2cc(Cl)ccc2OC(F)F)n1 | -14.4% | – | –
48 | Cc1ccc(C(=O)NCCc2nnc3ccc(SCC(=O)Nc4ccccc4F)nn23)cc1 | 17.8% | – | 29.1 µM [rising, single point]
49 | Cc1ccc(S(=O)(=O)Nc2cccc(-c3ccc(N4CCCCCC4)nn3)c2)cc1C | 8.06% | – | 0.326 µM [falling, single point]
50 | O=C(O)c1ccc(N/N=C/c2cccc3nccnc23)cc1 | 24.7% | 0.092 µM [rising, full curve, poor fit] | 1.16 µM [rising, partial curve]
51 | Cc1ccccc1NC(=O)c1cccc(S(=O)(=O)N2CCCCC2)c1 | 10.1% | – | –
52 | c1ccc(CN2CCN(CCN3CCn4c3nc3ccccc34)CC2)cc1 | 7.37% | – | –
53 | CC1CC(OCC(O)CN2CCOCC2)CC(C)(C)C1 (configuration not stated) | 33.2% | 29.1 µM [rising, single point] | 20.6 µM [rising, partial curve]
54 | S=C(c1ccc2c(c1)OCO2)N1CCCCC1 | -10.9% | 2.31 µM [falling, single point] | –
55 | Cc1ccc(NC2CCCN(C(=O)c3cn4cccc(C)c4n3)C2)cc1C (configuration not stated) | -4.53% | – | 29.1 µM [rising, single point]
56 | CCCc1cc(=O)n2[nH]c(C)c(-c3ccc(OC)cc3)c2n1 | – | – | 18.4 µM [falling, single point]
57 | O=C(CNC(=S)NC(=O)c1ccccc1)c1ccccc1 | 9.18% | – | –

Sorted by formula weight (low to high): part of the list above
Row | SMILES | cell number change | AC50 [1] | AC50 [2]
3 | O=C(CCSCCC(=O)NCc1ccccc1)NCc1ccccc1 | -52.4% | 7.31 µM [falling, partial curve] | 0.651 µM [falling, partial curve, poor fit]
47 | CCCc1cc(=O)[nH]c(SCc2cc(Cl)ccc2OC(F)F)n1 | -14.4% | – | –
31 | O=C(O)CC(NC(=O)CC(c1ccccc1)c1ccccc1)c1cccc([N+](=O)[O-])c1 (configuration not stated) | -7.8% | – | –
13 | Cc1ccc(NC(=O)C2CCN(S(=O)(=O)c3c(C)nn(C)c3C)CC2)c(Cl)c1 | 36.1% | 20.6 µM [rising, partial curve] | 25.9 µM [rising, partial curve]
